Laboratory results reported in paper PMC13324726.
Where a chain is given by its changes, count along the chain named. These are yes or no findings as the source states them, for the method shown. In cells and extracts the contact can be indirect. Some results given as binding are weak or reduced against the parent protein; the word gives no strength. For some of these results: Tags and fused reporters may be left off the sequences shown. Blank lines part the entries; values can stand above or below the molecule they belong to.

Amino acid sequences for entries named in this document (tags omitted). A change or cut given only in a name is not applied to a line headed by its entry.
UniProt P61006: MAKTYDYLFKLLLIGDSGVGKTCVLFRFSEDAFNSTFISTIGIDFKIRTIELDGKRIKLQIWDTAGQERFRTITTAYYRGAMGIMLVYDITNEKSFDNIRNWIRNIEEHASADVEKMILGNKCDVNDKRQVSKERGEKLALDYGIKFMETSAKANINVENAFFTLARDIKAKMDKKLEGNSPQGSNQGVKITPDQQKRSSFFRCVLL
UniProt Q8IY33: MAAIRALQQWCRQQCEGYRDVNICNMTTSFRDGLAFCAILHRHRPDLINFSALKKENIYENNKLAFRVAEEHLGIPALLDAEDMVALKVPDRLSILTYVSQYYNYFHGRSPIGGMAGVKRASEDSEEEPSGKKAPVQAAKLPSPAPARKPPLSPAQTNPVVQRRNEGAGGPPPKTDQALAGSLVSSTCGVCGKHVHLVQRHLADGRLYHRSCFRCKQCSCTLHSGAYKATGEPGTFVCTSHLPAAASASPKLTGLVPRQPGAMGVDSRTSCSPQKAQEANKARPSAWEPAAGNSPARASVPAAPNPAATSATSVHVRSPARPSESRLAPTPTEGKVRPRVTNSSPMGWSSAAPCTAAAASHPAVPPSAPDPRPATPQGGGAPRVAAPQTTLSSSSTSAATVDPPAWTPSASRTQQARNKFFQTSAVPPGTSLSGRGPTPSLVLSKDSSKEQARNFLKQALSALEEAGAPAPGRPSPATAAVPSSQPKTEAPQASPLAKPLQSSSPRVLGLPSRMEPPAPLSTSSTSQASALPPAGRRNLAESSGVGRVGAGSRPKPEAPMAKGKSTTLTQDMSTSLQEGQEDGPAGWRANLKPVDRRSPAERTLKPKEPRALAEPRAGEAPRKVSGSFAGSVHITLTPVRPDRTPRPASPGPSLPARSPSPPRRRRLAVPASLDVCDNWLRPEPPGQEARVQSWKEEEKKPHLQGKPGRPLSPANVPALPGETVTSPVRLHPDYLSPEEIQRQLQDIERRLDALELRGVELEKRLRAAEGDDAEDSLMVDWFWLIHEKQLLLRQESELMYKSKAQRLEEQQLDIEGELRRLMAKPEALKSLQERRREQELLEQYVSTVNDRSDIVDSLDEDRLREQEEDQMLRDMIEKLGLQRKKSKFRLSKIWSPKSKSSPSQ
UniProt Q9UQN3: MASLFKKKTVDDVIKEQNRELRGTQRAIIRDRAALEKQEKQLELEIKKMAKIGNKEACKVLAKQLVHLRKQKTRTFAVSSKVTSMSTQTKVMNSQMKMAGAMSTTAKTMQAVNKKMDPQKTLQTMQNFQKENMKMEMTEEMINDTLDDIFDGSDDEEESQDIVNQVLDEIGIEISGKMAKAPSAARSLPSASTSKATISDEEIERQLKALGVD
UniProt P55258: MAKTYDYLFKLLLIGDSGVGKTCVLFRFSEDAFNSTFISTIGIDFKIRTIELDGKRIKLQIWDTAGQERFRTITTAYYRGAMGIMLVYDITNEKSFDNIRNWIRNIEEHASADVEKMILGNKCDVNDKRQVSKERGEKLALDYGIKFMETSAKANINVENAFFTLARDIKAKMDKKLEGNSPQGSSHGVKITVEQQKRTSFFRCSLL
UniProt Q96LT7: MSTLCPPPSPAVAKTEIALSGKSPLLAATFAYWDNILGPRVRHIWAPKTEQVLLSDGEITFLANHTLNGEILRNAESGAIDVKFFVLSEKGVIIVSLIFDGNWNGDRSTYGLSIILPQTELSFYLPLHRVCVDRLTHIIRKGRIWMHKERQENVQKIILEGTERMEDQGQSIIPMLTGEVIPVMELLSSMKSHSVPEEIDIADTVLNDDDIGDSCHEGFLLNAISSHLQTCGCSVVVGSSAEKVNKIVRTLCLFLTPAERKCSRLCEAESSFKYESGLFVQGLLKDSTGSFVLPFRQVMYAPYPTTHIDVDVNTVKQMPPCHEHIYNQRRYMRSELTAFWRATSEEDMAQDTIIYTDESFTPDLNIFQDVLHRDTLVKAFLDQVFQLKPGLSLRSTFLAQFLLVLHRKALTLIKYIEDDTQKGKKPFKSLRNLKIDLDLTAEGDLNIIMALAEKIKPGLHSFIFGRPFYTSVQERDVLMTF

Tests used:
[1] = target: GFP-RAB8A (wild-type) (human) (UniProt P61006); test: co-IP; GFP-Trap IP from 293T cells co-transfected with GFP-RAB8A and HA-MICALL2 or empty vector, after 1 mM LLOMe 30 min; blots for HA-MICALL2, GFP-RAB8A and CHMP2B
[2] = target: T1, C9orf72/SMCR8 complex (SMCR8-GFP and C9orf72-GFP co-expressed in BV2 cells) (mouse) (UniProt Q6DFW0+Q3UMB5); test: co-IP; GFP-Trap beads overnight at 4 °C on lysates of BV2 cells co-expressing SMCR8-GFP and C9orf72-GFP, basal or 1 mM LLOMe 30 min; lysis buffer 20 mM Tris-HCl pH 7.4, 150 mM NaCl, 0.5% NP-40; blots for pT72-RAB8A and total RAB8A
T1 sequence 1: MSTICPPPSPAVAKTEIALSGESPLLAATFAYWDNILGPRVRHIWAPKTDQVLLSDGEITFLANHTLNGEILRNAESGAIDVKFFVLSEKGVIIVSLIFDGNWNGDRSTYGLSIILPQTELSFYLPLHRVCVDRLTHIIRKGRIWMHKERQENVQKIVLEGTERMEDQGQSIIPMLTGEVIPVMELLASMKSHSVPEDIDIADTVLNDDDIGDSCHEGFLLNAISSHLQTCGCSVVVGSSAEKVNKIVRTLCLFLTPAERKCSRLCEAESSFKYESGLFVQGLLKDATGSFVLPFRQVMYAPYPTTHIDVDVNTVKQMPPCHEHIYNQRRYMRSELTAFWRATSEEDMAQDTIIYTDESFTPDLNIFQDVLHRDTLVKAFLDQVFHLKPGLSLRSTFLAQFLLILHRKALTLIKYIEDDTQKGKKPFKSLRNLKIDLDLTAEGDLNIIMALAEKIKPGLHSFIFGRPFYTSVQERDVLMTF
T1 sequence 2: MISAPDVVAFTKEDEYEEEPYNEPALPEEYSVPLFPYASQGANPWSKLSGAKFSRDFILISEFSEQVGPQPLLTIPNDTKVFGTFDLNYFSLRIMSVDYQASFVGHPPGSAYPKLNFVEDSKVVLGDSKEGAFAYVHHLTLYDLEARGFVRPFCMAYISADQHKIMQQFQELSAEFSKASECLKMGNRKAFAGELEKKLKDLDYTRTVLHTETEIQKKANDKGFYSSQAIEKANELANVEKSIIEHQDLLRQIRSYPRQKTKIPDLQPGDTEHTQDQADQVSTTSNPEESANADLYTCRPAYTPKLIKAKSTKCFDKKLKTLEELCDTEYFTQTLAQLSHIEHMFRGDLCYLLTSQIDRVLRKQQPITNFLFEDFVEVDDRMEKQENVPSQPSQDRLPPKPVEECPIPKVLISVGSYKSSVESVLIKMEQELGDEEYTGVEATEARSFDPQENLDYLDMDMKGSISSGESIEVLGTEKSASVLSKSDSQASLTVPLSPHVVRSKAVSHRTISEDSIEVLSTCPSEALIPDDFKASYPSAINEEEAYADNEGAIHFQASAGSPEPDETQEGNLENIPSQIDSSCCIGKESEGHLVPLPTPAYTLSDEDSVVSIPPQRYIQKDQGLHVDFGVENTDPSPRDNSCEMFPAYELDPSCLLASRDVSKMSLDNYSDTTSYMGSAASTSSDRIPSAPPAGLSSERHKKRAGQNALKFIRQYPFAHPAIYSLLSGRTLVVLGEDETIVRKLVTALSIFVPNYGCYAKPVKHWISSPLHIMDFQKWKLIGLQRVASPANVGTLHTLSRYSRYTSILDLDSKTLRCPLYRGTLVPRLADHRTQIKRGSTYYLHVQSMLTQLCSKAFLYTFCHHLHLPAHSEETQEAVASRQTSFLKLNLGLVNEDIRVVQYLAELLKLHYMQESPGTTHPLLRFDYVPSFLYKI

[3] = target: GFP-RAB8A Q67L (GTP-bound form) (human) (UniProt P61006); test: co-IP; GFP-Trap IP from HEK293T cells expressing GFP-tagged RAB8A variants (WT, Q67L, T22N), basal or 1 mM LLOMe 30 min; blots for endogenous SMCR8 and C9orf72

binding [1]: binds
Molecule: HA-MICALL2 (from UniProt Q8IY33 1-904)

binding [1]: binds
Molecule: CHMP2B, endogenous in HEK293T cells (from UniProt Q9UQN3 1-213)

binding [2]: binds
Molecule: phosphorylated RAB8A (pT72-RAB8A), endogenous in BV2 cells (from UniProt P55258 1-207)

binding [3]: binds
B1: C9orf72/SMCR8 complex, endogenous in HEK293T cells (complex, UniProt Q96LT7 1-481; Q8TEV9 1-937)
chain 1: T1 sequence 1 with I4L, E22K, D50E, V158I, A188S, D198E, A287S, H386Q, I404V
chain 2: MISAPDVVAFTKEEEYEEEPYNEPALPEEYSVPLFPFASQGANPWSKLSGAKFSRDFILISEFSEQVGPQPLLTIPNDTKVFGTFDLNYFSLRIMSVDYQASFVGHPPGSAYPKLNFVEDSKVVLGDSKEGAFAYVHHLTLYDLEARGFVRPFCMAYISADQHKIMQQFQELSAEFSRASECLKTGNRKAFAGELEKKLKDLDYTRTVLHTETEIQKKANDKGFYSSQAIEKANELASVEKSIIEHQDLLKQIRSYPHRKLKGHDLCPGEMEHIQDQASQASTTSNPDESADTDLYTCRPAYTPKLIKAKSTKCFDKKLKTLEELCDTEYFTQTLAQLSHIEHMFRGDLCYLLTSQIDRALLKQQHITNFLFEDFVEVDDRMVEKQESIPSKPSQDRPPSSSLEECPIPKVLISVGSYKSSVESVLIKMEQELGDEEYKEVEVTELSSFDPQENLDYLDMDMKGSISSGESIEVLGTEKSTSVLSKSDSQASLTVPLSPQVVRSKAVSHRTISEDSIEVLSTCPSEALIPDDFKASYPSAINEEESYPDGNEGAIRFQASISPPELGETEEGSIENTPSQIDSSCCIGKESDGQLVLPSTPAHTHSDEDGVVSSPPQRHRQKDQGFRVDFSVENANPSSRDNSCEGFPAYELDPSHLLASRDISKTSLDNYSDTTSYVSSVASTSSDRIPSAYPAGLSSDRHKKRAGQNALKFIRQYPFAHPAIYSLLSGRTLVVLGEDEAIVRKLVTALAIFVPSYGCYAKPVKHWASSPLHIMDFQKWKLIGLQRVASPAGAGTLHALSRYSRYTSILDLDNKTLRCPLYRGTLVPRLADHRTQIKRGSTYYLHVQSMLTQLCSKAFLYTFCHHLHLPTHDKETEELVASRQMSFLKLTLGLVNEDVRVVQYLAELLKLHYMQESPGTSHPMLRFDYVPSFLYKI
